# Measured values from the supplement of paper PMC8728848.
# This is one part of the list.
# B1: TAL6-6LysM (Trichoderma atroviride) (protein)
# chain: AASKLGVPQPAQRDQVNCQLYAVQPNDNCIDISSKNNITYAQLLSWNPSLSSTCSNLASLNSSSICVSNPKGTFSISSNTVGATDIATTTAPVPSPTLDQTTSRCAKYYQVSDGDDCSHLTAQFAITLKDFIFLNSEVWQNCTNLELGYYYCVEPVGYISTYPGYLPTATTKPFNQTSATSLPYDGDPWARFSSNSSVIPIANGTRVDCYSYVYVKNLTENLFADCWNMASMYEITREELVLWNPSLGNDGSSGSNLSGAEASQVASSIAIPTTAPSSITTNLYTYPCTVAANISYCVALVSSTGALPTNTAPPGPHASGEISNCTAWFAPEAYDTCKSILDIFEMSFANFYKMNPSVGPDCSGLAVGTNYCVSTYPNGEDPNDDWDGDDSIPSISPTGIITPTPTQSGMVSNCNKFYDVHSNDGCSAIASSQHVDLSSLYKWNPAIKTDCSGLQASVYVCIGILTTSMSTTSKLPTTTSKPSTTSKPPTGITTPTPTQSGMVKNCNKFYDVHSGDGCSAIASSQKVNLSSFYLWNPAVKTDCSGLQASVFVCIGTLTTSMSTTTSKLPTTTSKPSTTSKPPTGIITPTPTQNGMVKNCNKFYDVHSGDGCSAIASSQKVNLSSFYLWNPAVKTDCSGLQASVFVCVGTATTTTAAGITTPTPTQSGMVSGCNKFYDVHAGDGCSAIASSQKIALSSLYKWNPAVKTDCSGLQASVYICIGVGNAAAARVTGAAASFLEQKLISEEDLNSAVDHHHHHH
# Key:
# Test in all cases: glycan array binding signal (z-score within array); higher = stronger binding
# Settings in all cases: glycan notation: IUPAC condensed, linker removed
# [1] = target: Neu5Ac(a2-3)Gal(b1-3)[Fuc(a1-4)]GlcNAc
# How it was run: (§1)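 Glycan array binding is given as a within-array Z-score, which can be read as non-binding when negative. The arrays, 3228 of them, came from the Consortium for Functional Glycomics database and were retained only where the protein sequence was available. Z-scores were averaged across arrays of the same protein sequence at different concentrations or buffers and across linkers.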
# [2] = target: Neu5Ac(a2-3)Gal(b1-3)[Fuc(a1-4)]GlcNAc(b1-3)Gal(b1-3)[Fuc(a1-4)]GlcNAc
# How it was run: as §1
# [3] = target: Neu5Ac(a2-3)Gal(b1-3)[Fuc(a1-4)]GlcNAc(b1-3)Gal(b1-4)[Fuc(a1-3)]GlcNAc
# How it was run: as §1
# [4] = target: Neu5Ac(a2-3)Gal(b1-3)[GlcNAc(b1-6)]GalNAc
# How it was run: as §1
# [5] = target: Neu5Ac(a2-3)Gal(b1-3)[Neu5Ac(a2-6)]GalNAc
# How it was run: as §1
# [6] = target: Neu5Ac(a2-3)Gal(b1-3)[Neu5Ac(a2-6)]GlcNAc(b1-3)[Fuc(a1-3)[Gal(b1-4)]GlcNAc(b1-6)]Gal(b1-4)Glc
# How it was run: as §1
# [7] = target: Neu5Ac(a2-3)Gal(b1-3)]Neu5Ac(a2-3)Gal(b1-4)]GlcNAc
# How it was run: as §1
# [8] = target: Neu5Ac(a2-3)Gal(b1-4)Glc
# How it was run: as §1
# [9] = target: Neu5Ac(a2-3)Gal(b1-4)GlcNAc
# How it was run: as §1
# [10] = target: Neu5Ac(a2-3)Gal(b1-4)GlcNAc(b1-2)Man
# How it was run: as §1
# [11] = target: Neu5Ac(a2-3)Gal(b1-4)GlcNAc(b1-2)Man(a1-3)[GlcNAc(b1-4)][Neu5Ac(a2-3)Gal(b1-4)GlcNAc(b1-2)Man(a1-6)]Man(b1-4)GlcNAc(b1-4)GlcNAc
# How it was run: as §1
# [12] = target: Neu5Ac(a2-3)Gal(b1-4)GlcNAc(b1-2)Man(a1-3)[Neu5Ac(a2-3)Gal(b1-4)GlcNAc(b1-2)Man(a1-6)]Man(b1-4)GlcNAc(b1-4)GlcNAc
# How it was run: as §1
# [13] = target: Neu5Ac(a2-3)Gal(b1-4)GlcNAc(b1-2)Man(a1-3)[Neu5Ac(a2-3)Gal(b1-4)GlcNAc(b1-2)Man(a1-6)]Man(b1-4)GlcNAc(b1-4)[Fuc(a1-6)]GlcNAc
# How it was run: as §1
# [14] = target: Neu5Ac(a2-3)Gal(b1-4)GlcNAc(b1-2)Man(a1-3)[Neu5Ac(a2-6)Gal(b1-4)GlcNAc(b1-2)Man(a1-6)]Man(b1-4)GlcNAc(b1-4)GlcNAc
# How it was run: as §1
# [15] = target: Neu5Ac(a2-3)Gal(b1-4)GlcNAc(b1-2)[Neu5Ac(a2-3)Gal(b1-4)GlcNAc(b1-4)]Man(a1-3)[GlcNAc(b1-4)][Neu5Ac(a2-3)Gal(b1-4)GlcNAc(b1-2)[Neu5Ac(a2-3)Gal(b1-4)GlcNAc(b1-6)]Man(a1-6)]Man(b1-4)GlcNAc(b1-4)GlcNAc
# How it was run: as §1
# [16] = target: Neu5Ac(a2-3)Gal(b1-4)GlcNAc(b1-2)[Neu5Ac(a2-3)Gal(b1-4)GlcNAc(b1-4)]Man(a1-3)[GlcNAc(b1-4)][Neu5Ac(a2-3)Gal(b1-4)GlcNAc(b1-4)Man(a1-6)]Man(b1-4)GlcNAc(b1-4)GlcNAc
# How it was run: as §1
# [17] = target: Neu5Ac(a2-3)Gal(b1-4)GlcNAc(b1-2)[Neu5Ac(a2-3)Gal(b1-4)GlcNAc(b1-6)]Man(a1-6)[Neu5Ac(a2-3)Gal(b1-4)GlcNAc(b1-2)Man(a1-3)]Man(b1-4)GlcNAc(b1-4)GlcNAc
# How it was run: as §1
# [18] = target: Neu5Ac(a2-3)Gal(b1-4)GlcNAc(b1-2)[Neu5Ac(a2-3)Gal(b1-4)GlcNAc(b1-6)]Man(a1-6)[Neu5Ac(a2-3)Gal(b1-4)GlcNAc(b1-2)Man(a1-3)][GlcNAc(b1-4)]Man(b1-4)GlcNAc(b1-4)GlcNAc
# How it was run: as §1
# [19] = target: Neu5Ac(a2-3)Gal(b1-4)GlcNAc(b1-3)Gal
# How it was run: as §1
# [20] = target: Neu5Ac(a2-3)Gal(b1-4)GlcNAc(b1-3)Gal(b1-3)GlcNAc
# How it was run: as §1
# [21] = target: Neu5Ac(a2-3)Gal(b1-4)GlcNAc(b1-3)Gal(b1-4)GlcNAc
# How it was run: as §1
# [22] = target: Neu5Ac(a2-3)Gal(b1-4)GlcNAc(b1-3)Gal(b1-4)GlcNAc(b1-2)Man(a1-3)[Neu5Ac(a2-3)Gal(b1-4)GlcNAc(b1-3)Gal(b1-4)GlcNAc(b1-2)Man(a1-6)]Man(b1-4)GlcNAc(b1-4)GlcNAc
# How it was run: as §1
# [23] = target: Neu5Ac(a2-3)Gal(b1-4)GlcNAc(b1-3)Gal(b1-4)GlcNAc(b1-3)Gal(b1-4)GlcNAc
# How it was run: as §1
# [24] = target: Neu5Ac(a2-3)Gal(b1-4)GlcNAc(b1-3)Gal(b1-4)GlcNAc(b1-3)Gal(b1-4)GlcNAc(b1-2)Man(a1-3)[Neu5Ac(a2-3)Gal(b1-4)GlcNAc(b1-3)Gal(b1-4)GlcNAc(b1-3)Gal(b1-4)GlcNAc(b1-2)Man(a1-6)]GalNAc
# How it was run: as §1
# [25] = target: Neu5Ac(a2-3)Gal(b1-4)GlcNAc(b1-3)Gal(b1-4)GlcNAc(b1-3)GalNAc
# How it was run: as §1
# [26] = target: Neu5Ac(a2-3)Gal(b1-4)GlcNAc(b1-3)Gal(b1-4)GlcNAc(b1-3)[Neu5Ac(a2-3)Gal(b1-4)GlcNAc(b1-3)Gal(b1-4)GlcNAc(b1-6)]GalNAc
# How it was run: as §1
# [27] = target: Neu5Ac(a2-3)Gal(b1-4)GlcNAc(b1-3)Gal(b1-4)GlcNAc(b1-6)[Gal(b1-3)]GalNAc
# How it was run: as §1
# [28] = target: Neu5Ac(a2-3)Gal(b1-4)GlcNAc(b1-3)Gal(b1-4)[Fuc(a1-3)]GlcNAc
# How it was run: as §1
# [29] = target: Neu5Ac(a2-3)Gal(b1-4)GlcNAc(b1-3)GalNAc
# How it was run: as §1
# [30] = target: Neu5Ac(a2-3)Gal(b1-4)GlcNAc(b1-3)[Neu5Ac(a2-3)Gal(b1-4)GlcNAc(b1-6)]GalNAc
# How it was run: as §1
binder,measurement,setting,value
B1,glycan array binding signal (z-score),[1],1.22
same,glycan array binding signal (z-score),[2],-0.756
same,glycan array binding signal (z-score),[3],1.02
same,glycan array binding signal (z-score),[4],-1.63
same,glycan array binding signal (z-score),[5],0.887
same,glycan array binding signal (z-score),[6],0.865
same,glycan array binding signal (z-score),[7],-0.807
same,glycan array binding signal (z-score),[8],-0.573
same,glycan array binding signal (z-score),[9],-0.586
same,glycan array binding signal (z-score),[10],0.22
same,glycan array binding signal (z-score),[11],0.194
same,glycan array binding signal (z-score),[12],-0.417
same,glycan array binding signal (z-score),[13],0.049
same,glycan array binding signal (z-score),[14],-0.683
same,glycan array binding signal (z-score),[15],-0.981
same,glycan array binding signal (z-score),[16],-0.721
same,glycan array binding signal (z-score),[17],0.485
same,glycan array binding signal (z-score),[18],0.013
same,glycan array binding signal (z-score),[19],-1.16
same,glycan array binding signal (z-score),[20],-0.147
same,glycan array binding signal (z-score),[21],-0.54
same,glycan array binding signal (z-score),[22],-0.658
same,glycan array binding signal (z-score),[23],1.76
same,glycan array binding signal (z-score),[24],-0.398
same,glycan array binding signal (z-score),[25],0.926
same,glycan array binding signal (z-score),[26],-0.648
same,glycan array binding signal (z-score),[27],-0.275
same,glycan array binding signal (z-score),[28],0.026
same,glycan array binding signal (z-score),[29],-0.543
same,glycan array binding signal (z-score),[30],-1.25

# Some of the entries so far, bar-delimited:
binder | measurement | setting | value
B1 | glycan array binding signal (z-score) | [25] | 0.926
same | glycan array binding signal (z-score) | [26] | -0.648
same | glycan array binding signal (z-score) | [27] | -0.275
same | glycan array binding signal (z-score) | [28] | 0.026
same | glycan array binding signal (z-score) | [29] | -0.543
